# Experimental data published in paper doi:10.1101/2025.11.04.686508.
# Sequences of proteins named here, by UniProt entry; tags and fusion partners are left off.
# UniProt O22467: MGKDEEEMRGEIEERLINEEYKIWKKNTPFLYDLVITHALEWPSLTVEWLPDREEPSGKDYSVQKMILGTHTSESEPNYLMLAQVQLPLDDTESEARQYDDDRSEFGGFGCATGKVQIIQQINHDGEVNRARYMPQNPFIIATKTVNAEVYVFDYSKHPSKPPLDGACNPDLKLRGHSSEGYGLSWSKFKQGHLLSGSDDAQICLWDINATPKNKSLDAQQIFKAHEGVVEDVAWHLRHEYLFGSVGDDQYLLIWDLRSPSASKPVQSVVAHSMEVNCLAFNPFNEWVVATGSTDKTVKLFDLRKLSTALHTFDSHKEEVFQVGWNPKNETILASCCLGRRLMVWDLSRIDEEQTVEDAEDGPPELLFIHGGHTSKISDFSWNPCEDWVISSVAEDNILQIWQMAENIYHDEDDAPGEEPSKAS
# UniProt O04539: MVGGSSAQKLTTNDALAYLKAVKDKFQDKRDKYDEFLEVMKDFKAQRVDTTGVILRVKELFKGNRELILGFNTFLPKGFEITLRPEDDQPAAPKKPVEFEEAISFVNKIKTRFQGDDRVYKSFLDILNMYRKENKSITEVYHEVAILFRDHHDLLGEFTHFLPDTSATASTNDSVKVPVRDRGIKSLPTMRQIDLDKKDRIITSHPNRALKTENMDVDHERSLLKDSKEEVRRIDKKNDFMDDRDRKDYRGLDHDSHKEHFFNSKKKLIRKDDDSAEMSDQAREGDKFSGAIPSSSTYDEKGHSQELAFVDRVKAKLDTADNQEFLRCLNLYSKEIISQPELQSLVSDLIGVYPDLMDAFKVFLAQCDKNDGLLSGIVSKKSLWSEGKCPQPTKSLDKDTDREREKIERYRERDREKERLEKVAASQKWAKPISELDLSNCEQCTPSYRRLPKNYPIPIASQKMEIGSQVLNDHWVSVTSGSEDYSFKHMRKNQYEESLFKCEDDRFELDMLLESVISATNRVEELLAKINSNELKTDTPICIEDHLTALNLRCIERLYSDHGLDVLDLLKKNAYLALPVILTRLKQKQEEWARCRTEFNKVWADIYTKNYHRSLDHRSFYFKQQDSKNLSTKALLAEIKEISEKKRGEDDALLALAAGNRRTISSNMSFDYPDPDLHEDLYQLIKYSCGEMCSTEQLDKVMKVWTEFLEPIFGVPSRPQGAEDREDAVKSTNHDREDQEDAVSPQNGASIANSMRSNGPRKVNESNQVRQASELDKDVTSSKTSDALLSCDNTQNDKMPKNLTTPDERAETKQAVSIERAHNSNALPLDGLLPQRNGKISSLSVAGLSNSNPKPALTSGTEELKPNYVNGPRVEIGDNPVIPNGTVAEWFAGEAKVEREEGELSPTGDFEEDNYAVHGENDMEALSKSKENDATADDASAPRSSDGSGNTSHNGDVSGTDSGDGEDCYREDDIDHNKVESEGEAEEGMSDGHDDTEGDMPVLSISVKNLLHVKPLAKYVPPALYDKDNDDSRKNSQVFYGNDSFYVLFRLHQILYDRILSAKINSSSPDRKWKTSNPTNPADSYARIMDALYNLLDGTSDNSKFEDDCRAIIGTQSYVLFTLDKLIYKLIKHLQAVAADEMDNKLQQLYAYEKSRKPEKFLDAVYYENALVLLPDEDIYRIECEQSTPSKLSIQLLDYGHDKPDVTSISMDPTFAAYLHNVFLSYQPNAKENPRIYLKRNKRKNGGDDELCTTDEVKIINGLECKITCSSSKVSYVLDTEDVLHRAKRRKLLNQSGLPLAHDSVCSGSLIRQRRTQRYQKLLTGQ
# UniProt Q9XIE1: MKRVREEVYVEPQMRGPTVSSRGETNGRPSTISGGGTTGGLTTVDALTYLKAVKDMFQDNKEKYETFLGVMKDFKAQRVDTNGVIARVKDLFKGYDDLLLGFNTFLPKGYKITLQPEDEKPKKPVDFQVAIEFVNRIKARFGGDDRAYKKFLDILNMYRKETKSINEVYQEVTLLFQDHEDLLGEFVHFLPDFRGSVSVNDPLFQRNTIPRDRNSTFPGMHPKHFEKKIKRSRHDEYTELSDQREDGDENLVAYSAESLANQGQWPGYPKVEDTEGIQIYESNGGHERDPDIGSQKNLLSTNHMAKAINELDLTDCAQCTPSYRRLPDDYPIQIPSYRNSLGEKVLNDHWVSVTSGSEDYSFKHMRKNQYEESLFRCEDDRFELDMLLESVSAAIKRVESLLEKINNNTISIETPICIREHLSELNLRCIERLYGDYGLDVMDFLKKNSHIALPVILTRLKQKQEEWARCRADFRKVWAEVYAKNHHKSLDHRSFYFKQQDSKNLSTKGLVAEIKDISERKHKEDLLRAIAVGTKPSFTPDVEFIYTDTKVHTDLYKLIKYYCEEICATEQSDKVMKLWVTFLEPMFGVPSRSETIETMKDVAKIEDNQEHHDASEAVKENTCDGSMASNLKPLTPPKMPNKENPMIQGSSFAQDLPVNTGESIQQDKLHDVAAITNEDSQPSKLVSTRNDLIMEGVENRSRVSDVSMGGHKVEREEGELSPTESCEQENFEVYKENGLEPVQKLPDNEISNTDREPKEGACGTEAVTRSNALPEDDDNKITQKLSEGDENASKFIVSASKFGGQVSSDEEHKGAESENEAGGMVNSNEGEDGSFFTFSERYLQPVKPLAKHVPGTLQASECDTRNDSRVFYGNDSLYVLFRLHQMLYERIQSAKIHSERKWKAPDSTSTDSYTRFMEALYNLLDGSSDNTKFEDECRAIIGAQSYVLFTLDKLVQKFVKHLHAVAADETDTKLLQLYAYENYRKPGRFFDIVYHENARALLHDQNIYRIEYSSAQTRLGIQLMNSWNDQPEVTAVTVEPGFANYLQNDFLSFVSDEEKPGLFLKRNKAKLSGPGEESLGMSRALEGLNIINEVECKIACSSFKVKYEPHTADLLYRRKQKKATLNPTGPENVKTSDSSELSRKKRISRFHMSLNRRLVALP
# UniProt Q9XIK6: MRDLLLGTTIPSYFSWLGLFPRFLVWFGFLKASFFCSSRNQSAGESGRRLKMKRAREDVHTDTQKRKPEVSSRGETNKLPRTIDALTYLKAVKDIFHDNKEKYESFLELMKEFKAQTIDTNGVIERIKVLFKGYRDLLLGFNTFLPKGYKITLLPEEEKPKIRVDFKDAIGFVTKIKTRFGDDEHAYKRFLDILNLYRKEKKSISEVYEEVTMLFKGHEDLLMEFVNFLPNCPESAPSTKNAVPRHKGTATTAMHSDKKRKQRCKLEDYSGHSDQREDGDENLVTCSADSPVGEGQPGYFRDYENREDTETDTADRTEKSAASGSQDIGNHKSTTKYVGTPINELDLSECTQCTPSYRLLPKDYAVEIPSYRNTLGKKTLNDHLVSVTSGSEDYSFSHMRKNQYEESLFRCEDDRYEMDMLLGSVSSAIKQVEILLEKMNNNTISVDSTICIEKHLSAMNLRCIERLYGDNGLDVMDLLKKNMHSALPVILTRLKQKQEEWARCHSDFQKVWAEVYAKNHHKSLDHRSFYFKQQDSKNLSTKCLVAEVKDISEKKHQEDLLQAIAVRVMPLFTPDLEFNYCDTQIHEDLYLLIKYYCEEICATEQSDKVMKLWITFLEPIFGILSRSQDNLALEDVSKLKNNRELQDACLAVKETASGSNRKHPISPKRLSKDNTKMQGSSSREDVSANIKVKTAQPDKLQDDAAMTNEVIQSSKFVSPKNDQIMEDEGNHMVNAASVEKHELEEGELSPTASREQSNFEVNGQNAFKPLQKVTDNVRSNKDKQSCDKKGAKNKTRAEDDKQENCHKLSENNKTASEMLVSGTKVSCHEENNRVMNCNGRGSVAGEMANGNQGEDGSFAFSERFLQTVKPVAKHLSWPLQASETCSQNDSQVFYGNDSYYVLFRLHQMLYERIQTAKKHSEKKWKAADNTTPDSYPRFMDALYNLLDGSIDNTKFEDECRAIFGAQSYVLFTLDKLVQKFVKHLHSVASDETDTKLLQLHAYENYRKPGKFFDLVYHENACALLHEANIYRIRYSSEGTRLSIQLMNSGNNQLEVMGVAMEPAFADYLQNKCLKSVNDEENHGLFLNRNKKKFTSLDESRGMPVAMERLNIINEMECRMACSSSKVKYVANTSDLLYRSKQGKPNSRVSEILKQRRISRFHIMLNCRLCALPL
# UniProt P41916: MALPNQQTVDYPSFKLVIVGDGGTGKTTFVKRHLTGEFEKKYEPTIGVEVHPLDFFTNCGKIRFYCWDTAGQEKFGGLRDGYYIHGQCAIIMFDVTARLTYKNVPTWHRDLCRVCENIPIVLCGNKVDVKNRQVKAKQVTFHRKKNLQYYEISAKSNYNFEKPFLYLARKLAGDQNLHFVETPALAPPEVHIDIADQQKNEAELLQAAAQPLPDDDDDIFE
# Results are given in words; binding and its absence hold for the method and conditions named. In cells and extracts the contact can be indirect. These calls come from enrichment with a bait or labelling near it, and not all partners need be listed. Sequences can lack the tags named with a protein.
# Molecular target: T1, MycHDA19 (Myc-tagged histone deacetylase 19) (Arabidopsis thaliana) (UniProt O22446)
# T1 sequence: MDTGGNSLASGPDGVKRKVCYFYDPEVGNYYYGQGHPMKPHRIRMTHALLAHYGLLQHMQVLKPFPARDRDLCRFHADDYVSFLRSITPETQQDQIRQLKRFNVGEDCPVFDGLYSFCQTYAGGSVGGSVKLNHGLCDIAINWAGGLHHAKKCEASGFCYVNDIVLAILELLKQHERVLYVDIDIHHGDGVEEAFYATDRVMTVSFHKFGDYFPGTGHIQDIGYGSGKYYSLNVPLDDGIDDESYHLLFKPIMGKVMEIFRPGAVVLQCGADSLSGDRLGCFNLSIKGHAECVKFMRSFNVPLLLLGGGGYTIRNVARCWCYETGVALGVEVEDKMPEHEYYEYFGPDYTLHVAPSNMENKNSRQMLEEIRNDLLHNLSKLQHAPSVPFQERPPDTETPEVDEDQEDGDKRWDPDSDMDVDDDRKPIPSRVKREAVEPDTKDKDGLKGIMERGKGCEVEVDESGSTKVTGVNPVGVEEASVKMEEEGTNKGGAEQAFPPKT
# Test: affinity purification with mass spectrometry
row,binding,Substance
1,binds,APOK3
2,binds,HDIP3
3,binds,MSI1 (from UniProt O22467 1-424)
4,binds,RPS26e
5,binds,SIN3-like (SNL) protein 4 (from UniProt O04539 1-1326)
6,binds,SIN3-like (SNL) protein 5 (from UniProt Q9XIE1 1-1162)
7,binds,SIN3-like (SNL) protein 6 (from UniProt Q9XIK6 1-1173)
8,binds,small GTP-binding protein RAN1 (from UniProt P41916 1-221)
